Data reported in publication PMC6283417, “The structure of the RbBP5 β-propeller domain reveals a surface with potential nucleic acid binding sites”.
No constants are given. Whether binding was seen depends on the method and setting.

Chains of the proteins cited; added tags and fusions are not shown. Residues count along the entry.
UniProt Q8BX09, residues 1-340: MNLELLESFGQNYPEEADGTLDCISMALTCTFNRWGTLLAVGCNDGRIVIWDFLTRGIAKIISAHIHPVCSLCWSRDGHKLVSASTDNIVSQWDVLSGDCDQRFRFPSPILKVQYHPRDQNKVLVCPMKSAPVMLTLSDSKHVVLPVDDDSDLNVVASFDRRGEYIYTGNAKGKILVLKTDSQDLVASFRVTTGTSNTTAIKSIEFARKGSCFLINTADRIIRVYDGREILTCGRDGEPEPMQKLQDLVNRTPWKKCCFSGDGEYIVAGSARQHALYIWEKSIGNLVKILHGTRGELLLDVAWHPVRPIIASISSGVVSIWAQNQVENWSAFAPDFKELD

Biological target: RbBP5 (1–340) (mouse) (UniProt Q8BX09)
Assay: 1H-15N HSQC NMR spectrum; 40–50 μM 15N-labeled RbBP5(1–340), 10 mM Tris–HCl, 75 mM NaCl, pH 7.2, 10% D2O, 37°C; both purified

- binding: no binding (tested: 40–50 μM)
Substance: RbBP5 (1–340) (from UniProt Q8BX09 1-340) (domain or fragment)
